Data from the M2OR odorant receptor database.
Only a part is listed here, and it is no random draw. Calls are pooled over several reports, among them a noisy single-well screen. The list shows a part of the results.

Key:
Conditions in all cases: stereoisomer not certain
OR5T1 (Homo sapiens) = target: T1, OR5T1 (Homo sapiens) (UniProt Q8NG75)
T1 sequence (whole entry): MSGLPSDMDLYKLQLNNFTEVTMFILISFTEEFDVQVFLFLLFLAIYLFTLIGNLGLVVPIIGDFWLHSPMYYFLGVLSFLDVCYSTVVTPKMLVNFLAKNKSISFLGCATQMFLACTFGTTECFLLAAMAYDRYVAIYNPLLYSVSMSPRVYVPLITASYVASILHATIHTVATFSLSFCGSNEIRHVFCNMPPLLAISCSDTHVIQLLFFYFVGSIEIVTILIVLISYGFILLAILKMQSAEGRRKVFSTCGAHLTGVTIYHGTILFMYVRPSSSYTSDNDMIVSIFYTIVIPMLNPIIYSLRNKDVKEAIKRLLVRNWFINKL
Method in brief: (§1)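 Whether a receptor–molecule pair is responsive (active) rests on the original authors' judgment that its measured signal was statistically different from baseline. Pairs without that judgment are non-responsive (inactive). Sources used varied assay methods, commonly transient luciferase assays in mammalian cell lines.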

OR5T1 = system: T2, OR5T1
T2 sequence (whole entry): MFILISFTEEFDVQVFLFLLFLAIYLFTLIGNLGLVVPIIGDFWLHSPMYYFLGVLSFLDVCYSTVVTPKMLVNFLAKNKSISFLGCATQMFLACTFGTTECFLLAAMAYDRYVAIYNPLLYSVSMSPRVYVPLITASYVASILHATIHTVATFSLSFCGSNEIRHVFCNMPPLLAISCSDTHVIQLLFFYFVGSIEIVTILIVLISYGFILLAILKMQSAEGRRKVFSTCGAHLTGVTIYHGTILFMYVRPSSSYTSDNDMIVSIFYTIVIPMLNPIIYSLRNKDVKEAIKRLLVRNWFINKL
Method in brief: as §1

OR5T2 [1] = system: T3, OR5T2
T3 sequence (whole entry): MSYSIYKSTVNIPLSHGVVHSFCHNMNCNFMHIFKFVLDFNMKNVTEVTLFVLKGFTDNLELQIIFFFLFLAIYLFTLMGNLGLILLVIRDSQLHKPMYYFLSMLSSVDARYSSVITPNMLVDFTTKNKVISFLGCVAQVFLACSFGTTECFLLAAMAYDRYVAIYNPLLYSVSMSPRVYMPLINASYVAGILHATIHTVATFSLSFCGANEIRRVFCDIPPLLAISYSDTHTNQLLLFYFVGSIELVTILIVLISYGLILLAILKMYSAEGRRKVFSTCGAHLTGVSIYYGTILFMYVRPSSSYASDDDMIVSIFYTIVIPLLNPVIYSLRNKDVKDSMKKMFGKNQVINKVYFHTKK
Method in brief: as §1

OR5T2 [2] = system: T4, OR5T2; remark: listed apart in the source
T4 sequence (whole entry): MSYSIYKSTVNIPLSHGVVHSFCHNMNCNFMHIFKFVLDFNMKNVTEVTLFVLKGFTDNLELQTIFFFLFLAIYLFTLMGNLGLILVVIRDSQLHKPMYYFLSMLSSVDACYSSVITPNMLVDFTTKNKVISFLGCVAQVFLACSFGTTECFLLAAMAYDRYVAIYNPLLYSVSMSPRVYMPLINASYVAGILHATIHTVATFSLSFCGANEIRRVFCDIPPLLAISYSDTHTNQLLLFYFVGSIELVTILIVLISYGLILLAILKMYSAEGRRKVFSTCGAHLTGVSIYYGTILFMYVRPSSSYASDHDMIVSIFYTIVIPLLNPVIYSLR
Method in brief: as §1

OR5T3 = system: T5, OR5T3
T5 sequence (whole entry): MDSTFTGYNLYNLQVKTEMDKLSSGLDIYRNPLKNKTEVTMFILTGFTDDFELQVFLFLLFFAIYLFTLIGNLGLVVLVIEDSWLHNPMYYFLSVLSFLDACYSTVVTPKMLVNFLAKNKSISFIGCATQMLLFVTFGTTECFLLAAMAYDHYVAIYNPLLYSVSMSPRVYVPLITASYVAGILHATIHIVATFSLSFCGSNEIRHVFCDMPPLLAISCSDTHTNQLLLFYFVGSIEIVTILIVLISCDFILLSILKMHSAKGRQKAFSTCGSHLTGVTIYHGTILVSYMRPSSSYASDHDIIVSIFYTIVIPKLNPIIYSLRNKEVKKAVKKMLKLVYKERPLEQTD
Method in brief: as §1

OR5V1 (Homo sapiens) = target: T6, OR5V1 (Homo sapiens) (UniProt Q9UGF6)
T6 sequence (whole entry): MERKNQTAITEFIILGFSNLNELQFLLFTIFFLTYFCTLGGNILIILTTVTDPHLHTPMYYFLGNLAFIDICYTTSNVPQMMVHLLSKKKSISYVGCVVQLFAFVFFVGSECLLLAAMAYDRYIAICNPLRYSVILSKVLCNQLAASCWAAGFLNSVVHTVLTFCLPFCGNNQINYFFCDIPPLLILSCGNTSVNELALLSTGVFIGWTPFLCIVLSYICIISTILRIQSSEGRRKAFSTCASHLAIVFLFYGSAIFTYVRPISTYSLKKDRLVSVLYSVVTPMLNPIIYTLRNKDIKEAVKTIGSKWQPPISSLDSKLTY
Method in brief: as §1

OR5W2 = system: T7, OR5W2
T7 sequence (whole entry): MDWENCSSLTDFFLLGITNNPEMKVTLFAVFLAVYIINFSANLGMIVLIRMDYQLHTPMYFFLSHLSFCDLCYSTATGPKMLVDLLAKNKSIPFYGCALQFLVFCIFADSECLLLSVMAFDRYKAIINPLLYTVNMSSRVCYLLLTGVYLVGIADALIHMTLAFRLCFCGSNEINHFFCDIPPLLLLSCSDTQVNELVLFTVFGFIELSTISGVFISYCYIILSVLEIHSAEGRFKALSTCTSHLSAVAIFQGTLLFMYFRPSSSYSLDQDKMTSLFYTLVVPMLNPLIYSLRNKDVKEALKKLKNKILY
Method in brief: as §1

OR6A2 (Homo sapiens) = target: T8, OR6A2 (Homo sapiens) (UniProt O95222)
T8 sequence (whole entry): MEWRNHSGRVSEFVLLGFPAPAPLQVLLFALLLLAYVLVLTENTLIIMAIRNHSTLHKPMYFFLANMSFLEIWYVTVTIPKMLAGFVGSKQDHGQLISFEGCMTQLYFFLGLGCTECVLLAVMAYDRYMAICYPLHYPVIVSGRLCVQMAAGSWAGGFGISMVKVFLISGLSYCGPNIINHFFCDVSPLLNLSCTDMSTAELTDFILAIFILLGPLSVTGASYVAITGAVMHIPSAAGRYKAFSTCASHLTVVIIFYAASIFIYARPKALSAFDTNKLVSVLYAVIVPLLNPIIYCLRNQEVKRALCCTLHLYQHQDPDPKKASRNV
Method in brief: as §1

Measured: odorant receptor agonist call;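 also: active if original authors judged signal statistically different from baseline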

CC(C)C=O
inactive: all assays above

CCCCCCCCCCC=O
inactive: all assays above

O=CCc1ccccc1
inactive: all assays above

COC(=O)c1ccccc1
active: OR5V1 (Homo sapiens)
inactive: all other assays above

c1ccc(Oc2ccccc2)cc1
inactive: all assays above

CC12C=CCC1C1CCC3=CC(=O)CCC3(C)C1CC2 (stereo unspecified)
active: OR5V1 (Homo sapiens)
inactive: all other assays above

CC1=NC(C)SC1C (stereo unspecified)
active: OR5V1 (Homo sapiens)
inactive: all other assays above

CC(=O)C(C)=O
inactive: all assays above

CC1COCc2cc3c(cc21)C(C)(C)C(C)C3(C)C (stereo unspecified)
inactive: OR5V1 (Homo sapiens)
active: all other assays above

C=CCSCC=C
inactive: all assays above

CCCCCCCC=O
inactive: all assays above

COc1cc(C)ccc1O
inactive: all assays above
